Measured values taken from article doi:10.1101/2023.05.06.539678.
Results are given in words; binding and its absence hold for the method and conditions named. Binding seen in cells or lysates may run through a third protein. A yes stands for co-enrichment or nearness to the bait. Other partners may have been found. For some of these results: A no says only that the protein was not detected with the bait. Sequences can lack the tags named with a protein.

Chains of the proteins cited; added tags and fusions are not shown. Lines headed by an entry give the natural chain unless they say otherwise; changes in a name come on top. Residues count along the entry.
UniProt Q92609: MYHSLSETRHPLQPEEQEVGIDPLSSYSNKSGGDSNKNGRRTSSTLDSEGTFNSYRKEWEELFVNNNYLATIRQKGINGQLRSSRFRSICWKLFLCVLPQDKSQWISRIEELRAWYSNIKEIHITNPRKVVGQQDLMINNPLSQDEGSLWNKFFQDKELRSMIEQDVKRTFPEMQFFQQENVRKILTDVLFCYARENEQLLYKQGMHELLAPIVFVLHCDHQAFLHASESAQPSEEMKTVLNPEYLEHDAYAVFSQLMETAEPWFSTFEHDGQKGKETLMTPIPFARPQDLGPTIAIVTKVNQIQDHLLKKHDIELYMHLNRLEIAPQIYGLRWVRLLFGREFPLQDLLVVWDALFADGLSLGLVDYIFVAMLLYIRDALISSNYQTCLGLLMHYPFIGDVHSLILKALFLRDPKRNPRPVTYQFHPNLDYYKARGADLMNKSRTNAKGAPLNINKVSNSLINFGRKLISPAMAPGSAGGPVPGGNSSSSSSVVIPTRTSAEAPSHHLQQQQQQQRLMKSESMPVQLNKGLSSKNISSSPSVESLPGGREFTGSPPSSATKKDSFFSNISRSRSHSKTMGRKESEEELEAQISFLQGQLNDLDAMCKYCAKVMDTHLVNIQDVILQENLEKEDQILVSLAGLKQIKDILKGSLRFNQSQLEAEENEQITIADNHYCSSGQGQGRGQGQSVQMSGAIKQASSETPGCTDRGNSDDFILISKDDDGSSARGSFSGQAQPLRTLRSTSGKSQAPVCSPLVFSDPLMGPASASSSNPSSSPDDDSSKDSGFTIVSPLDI
UniProt P63027: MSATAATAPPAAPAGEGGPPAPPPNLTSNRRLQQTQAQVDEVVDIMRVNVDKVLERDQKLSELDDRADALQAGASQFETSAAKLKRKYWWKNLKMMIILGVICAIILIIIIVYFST
UniProt P05556: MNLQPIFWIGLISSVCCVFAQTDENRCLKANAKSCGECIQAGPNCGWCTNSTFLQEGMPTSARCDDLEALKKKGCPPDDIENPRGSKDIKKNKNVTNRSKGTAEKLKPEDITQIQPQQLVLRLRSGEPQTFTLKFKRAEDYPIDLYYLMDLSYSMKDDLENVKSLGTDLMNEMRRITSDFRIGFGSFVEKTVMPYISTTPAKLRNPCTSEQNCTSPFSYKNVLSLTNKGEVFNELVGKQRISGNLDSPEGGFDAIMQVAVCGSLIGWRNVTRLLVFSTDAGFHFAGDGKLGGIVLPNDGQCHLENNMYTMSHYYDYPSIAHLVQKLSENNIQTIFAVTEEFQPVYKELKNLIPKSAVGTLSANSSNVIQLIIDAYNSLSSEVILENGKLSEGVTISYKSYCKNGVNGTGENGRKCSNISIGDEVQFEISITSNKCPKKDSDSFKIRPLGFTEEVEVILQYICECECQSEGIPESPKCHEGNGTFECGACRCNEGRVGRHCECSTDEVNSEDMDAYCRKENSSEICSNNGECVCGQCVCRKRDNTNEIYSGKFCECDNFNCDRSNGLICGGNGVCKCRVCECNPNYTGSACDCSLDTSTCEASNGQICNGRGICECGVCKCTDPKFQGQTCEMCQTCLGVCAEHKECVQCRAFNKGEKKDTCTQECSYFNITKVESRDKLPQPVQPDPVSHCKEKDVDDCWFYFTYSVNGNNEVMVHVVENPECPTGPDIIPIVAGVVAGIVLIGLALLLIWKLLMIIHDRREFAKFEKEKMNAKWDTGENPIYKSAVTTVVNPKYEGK
UniProt Q15836: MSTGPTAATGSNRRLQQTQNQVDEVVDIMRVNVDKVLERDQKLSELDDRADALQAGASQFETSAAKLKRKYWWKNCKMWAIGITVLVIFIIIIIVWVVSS
UniProt P16070, residues 21-742: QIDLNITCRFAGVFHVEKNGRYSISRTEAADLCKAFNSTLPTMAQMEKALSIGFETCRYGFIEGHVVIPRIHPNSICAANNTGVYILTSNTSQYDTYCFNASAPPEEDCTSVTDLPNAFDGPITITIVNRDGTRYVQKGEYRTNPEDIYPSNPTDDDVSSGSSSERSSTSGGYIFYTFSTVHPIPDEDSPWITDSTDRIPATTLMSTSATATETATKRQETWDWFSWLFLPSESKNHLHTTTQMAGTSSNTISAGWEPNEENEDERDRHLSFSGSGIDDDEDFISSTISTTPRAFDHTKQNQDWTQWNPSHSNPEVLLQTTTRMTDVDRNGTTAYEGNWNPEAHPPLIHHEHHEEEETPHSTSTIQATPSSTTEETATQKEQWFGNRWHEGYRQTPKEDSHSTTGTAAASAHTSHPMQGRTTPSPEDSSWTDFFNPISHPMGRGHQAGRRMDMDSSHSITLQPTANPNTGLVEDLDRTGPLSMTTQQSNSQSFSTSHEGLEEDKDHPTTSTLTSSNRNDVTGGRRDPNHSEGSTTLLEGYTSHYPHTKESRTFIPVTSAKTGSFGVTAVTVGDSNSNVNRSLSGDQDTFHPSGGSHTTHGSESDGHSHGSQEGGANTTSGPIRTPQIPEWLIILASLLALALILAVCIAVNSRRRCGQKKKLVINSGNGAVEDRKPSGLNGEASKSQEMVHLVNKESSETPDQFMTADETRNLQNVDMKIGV
UniProt Q08722, residues 19-323: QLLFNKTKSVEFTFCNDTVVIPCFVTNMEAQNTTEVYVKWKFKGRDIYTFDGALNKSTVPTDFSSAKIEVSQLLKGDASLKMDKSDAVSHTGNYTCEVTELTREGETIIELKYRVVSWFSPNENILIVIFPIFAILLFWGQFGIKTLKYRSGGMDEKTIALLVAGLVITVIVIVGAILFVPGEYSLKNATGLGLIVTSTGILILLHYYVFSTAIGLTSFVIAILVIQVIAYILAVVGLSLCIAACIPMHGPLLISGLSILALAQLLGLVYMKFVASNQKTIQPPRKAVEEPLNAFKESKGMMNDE
UniProt Q14677: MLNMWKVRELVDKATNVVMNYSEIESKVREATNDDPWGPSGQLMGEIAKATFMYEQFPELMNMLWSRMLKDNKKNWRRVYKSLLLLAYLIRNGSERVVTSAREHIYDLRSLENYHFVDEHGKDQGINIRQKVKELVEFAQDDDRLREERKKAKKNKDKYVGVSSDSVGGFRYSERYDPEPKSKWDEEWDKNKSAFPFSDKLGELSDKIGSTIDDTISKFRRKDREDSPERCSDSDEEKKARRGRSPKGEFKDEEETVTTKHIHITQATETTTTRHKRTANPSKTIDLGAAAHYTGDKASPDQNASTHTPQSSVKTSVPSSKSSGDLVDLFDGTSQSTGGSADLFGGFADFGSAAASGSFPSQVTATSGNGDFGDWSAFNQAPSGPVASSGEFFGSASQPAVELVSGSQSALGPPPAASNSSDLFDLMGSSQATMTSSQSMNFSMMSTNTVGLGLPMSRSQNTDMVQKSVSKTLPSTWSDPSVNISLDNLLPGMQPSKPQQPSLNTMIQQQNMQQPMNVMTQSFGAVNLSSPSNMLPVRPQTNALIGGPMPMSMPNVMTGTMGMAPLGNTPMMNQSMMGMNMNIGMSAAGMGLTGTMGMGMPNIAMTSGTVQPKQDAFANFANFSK
UniProt P11717, residues 41-2491: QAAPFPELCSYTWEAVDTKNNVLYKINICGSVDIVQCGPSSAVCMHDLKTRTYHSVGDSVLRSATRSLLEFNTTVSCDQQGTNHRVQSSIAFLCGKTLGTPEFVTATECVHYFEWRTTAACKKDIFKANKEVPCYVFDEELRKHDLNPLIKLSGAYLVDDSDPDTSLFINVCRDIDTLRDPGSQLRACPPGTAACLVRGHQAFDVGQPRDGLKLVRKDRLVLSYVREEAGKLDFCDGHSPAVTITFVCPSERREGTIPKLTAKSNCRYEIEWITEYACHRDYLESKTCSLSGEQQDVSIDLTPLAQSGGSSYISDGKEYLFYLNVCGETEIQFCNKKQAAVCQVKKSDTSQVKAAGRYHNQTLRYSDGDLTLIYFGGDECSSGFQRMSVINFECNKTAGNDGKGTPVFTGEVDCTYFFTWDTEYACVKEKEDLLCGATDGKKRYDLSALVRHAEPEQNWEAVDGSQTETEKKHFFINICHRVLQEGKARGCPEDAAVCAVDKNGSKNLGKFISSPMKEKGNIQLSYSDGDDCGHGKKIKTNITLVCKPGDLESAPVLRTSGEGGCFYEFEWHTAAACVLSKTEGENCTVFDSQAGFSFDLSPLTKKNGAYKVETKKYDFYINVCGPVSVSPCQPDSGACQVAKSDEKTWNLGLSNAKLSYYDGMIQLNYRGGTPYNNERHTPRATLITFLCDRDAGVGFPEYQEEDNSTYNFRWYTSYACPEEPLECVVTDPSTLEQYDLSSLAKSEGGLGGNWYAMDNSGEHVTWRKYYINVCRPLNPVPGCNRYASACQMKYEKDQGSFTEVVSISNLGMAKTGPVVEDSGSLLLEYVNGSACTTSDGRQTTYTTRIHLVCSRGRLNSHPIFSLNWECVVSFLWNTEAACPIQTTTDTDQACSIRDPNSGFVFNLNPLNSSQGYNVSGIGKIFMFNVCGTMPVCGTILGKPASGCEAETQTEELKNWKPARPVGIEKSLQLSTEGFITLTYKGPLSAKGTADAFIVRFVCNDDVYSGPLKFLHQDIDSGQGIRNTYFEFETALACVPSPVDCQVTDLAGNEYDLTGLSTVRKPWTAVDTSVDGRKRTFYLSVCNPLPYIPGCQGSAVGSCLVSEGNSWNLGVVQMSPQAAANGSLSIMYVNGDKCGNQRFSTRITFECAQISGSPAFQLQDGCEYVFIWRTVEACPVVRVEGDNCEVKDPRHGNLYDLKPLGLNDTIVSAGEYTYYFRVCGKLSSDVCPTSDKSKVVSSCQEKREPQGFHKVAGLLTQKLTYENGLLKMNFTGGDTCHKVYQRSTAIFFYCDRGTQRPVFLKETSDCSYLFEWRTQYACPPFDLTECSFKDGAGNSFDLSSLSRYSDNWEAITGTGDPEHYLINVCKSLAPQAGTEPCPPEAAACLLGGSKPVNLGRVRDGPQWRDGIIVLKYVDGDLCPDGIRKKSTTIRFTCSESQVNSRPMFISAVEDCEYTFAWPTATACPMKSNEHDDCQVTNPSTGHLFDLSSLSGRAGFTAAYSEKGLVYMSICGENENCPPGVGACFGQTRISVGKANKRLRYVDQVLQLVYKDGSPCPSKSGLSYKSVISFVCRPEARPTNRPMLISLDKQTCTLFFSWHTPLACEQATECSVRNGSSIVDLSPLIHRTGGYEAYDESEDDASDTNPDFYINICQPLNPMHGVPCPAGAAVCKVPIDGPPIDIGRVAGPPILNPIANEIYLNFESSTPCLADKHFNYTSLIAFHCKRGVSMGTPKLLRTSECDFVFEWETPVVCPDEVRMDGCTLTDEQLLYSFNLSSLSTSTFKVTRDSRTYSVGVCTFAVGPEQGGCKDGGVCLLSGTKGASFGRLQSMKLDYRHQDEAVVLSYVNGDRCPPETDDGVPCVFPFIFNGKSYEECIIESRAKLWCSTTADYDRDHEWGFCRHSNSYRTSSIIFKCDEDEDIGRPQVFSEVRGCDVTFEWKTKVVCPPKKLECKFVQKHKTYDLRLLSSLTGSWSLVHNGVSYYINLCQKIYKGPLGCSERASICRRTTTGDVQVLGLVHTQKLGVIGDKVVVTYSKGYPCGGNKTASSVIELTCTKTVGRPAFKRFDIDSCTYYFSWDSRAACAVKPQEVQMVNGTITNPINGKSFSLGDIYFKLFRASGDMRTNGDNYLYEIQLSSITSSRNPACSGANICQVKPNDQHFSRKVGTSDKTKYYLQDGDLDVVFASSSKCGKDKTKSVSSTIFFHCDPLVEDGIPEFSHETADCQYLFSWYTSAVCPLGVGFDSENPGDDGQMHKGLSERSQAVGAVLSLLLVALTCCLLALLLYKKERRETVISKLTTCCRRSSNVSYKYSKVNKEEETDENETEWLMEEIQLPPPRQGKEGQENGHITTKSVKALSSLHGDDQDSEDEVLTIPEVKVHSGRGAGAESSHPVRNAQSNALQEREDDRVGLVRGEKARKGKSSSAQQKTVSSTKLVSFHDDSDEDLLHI
UniProt Q13596: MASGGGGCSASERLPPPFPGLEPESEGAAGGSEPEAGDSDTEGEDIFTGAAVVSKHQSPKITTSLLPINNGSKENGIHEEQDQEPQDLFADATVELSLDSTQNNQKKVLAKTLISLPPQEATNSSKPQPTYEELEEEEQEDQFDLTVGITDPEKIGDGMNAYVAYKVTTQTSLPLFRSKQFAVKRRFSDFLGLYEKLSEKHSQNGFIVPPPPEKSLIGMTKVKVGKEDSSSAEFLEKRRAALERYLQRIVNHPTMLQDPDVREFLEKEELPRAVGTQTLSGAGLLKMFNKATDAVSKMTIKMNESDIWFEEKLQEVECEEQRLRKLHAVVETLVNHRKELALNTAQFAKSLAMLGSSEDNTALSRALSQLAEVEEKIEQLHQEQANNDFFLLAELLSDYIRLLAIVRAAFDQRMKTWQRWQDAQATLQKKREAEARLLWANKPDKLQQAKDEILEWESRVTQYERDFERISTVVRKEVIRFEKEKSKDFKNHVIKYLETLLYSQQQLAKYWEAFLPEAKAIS

T1: EMP3 WT tagged with Myc-glycine-serine linker-BioID2 at the C-terminal end (UniProt P54852)
T1 sequence: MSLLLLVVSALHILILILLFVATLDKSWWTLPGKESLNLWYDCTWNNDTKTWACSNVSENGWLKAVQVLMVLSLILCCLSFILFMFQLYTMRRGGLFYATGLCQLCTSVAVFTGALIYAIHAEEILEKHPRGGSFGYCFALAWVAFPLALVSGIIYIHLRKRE

T2: EMP3 N47A tagged with Myc-glycine-serine linker-BioID2 at the C-terminal end (UniProt P54852)
T2 sequence: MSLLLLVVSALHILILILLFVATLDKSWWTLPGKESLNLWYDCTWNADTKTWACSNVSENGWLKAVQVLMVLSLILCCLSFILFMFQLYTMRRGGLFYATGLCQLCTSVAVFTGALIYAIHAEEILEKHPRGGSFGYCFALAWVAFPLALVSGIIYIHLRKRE


Target: T1, EMP3 WT tagged with Myc-glycine-serine linker-BioID2 at the C-terminal end
Test: proximity labelling

| Molecule | binding |
| --- | --- |
| LRP1 (human (endogenous in U-118)) (receptor) | binds |
| ATP5B (from UniProt P06576 48-529) | binds |
| TBC1D5 (from UniProt Q92609 1-795) | binds |
| VAMP2 (from UniProt P63027 1-116) | binds |
| SRP54 (from UniProt P61011 1-504) | binds |
| EGFR (from UniProt P00533 25-1210) (receptor) | binds |
| ITGB1 (from UniProt P05556 21-798) (receptor) | binds |

Other lines, results leading:

| binding | Molecule |
| --- | --- |
| binds | VAMP3 (from UniProt Q15836 1-100) |
| binds | CD44 (from UniProt P16070 21-742) (receptor) |
| binds | ITGA5 (human (endogenous in U-118)) (receptor) |
| binds | CD47 (from UniProt Q08722 19-323) |
| binds | CAV1 (from UniProt Q03135 1-178) |
| binds | CLINT1 (from UniProt Q14677 1-625) |
| binds | IGF2R (from UniProt P11717 41-2491) (receptor) |
| binds | SNX1 (from UniProt Q13596 1-522) |

Target: T2, EMP3 N47A tagged with Myc-glycine-serine linker-BioID2 at the C-terminal end
Test: proximity labelling

| binding | Molecule |
| --- | --- |
| no binding | DDOST (protein, UniProt P39656 43-456) SGPRTLVLLDNLNVRETHSLFFRSLKDRGFELTFKTADDPSLSLIKYGEFLYDNLIIFSPSVEDFGGNINVETISAFIDGGGSVLVAASSDIGDPLRELGSECGIEFDEEKTAVIDHHNYDISDLGQHTLIVADTENLLKAPTIVGKSSLNPILFRGVGMVADPDNPLVLDILTGSSTSYSFFPDKPITQYPHAVGKNTLLIAGLQARNNARVIFSGSLDFFSDSFFNSAVQKAAPGSQRYSQTGNYELAVALSRWVFKEEGVLRVGPVSHHRVGETAPPNAYTVTDLVEYSIVIQQLSNGKWVPFDGDDIQLEFVRIDPFVRTFLKKKGGKYSVQFKLPDVYGVFQFKVDYNRLGYTHLYSSTQVSVRPLQHTQYERFIPSAYPYYASAFSMMLGLFIFSIVFLHMKEKEKSD |

Target: T1, EMP3 WT tagged with Myc-glycine-serine linker-BioID2 at the C-terminal end
Test: proximity labelling
Remark: another data set of the same source

| Molecule | binding |
| --- | --- |
| STT3A (protein, UniProt P46977 1-705) MTKFGFLRLSYEKQDTLLKLLILSMAAVLSFSTRLFAVLRFESVIHEFDPYFNYRTTRFLAEEGFYKFHNWFDDRAWYPLGRIIGGTIYPGLMITSAAIYHVLHFFHITIDIRNVCVFLAPLFSSFTTIVTYHLTKELKDAGAGLLAAAMIAVVPGYISRSVAGSYDNEGIAIFCMLLTYYMWIKAVKTGSICWAAKCALAYFYMVSSWGGYVFLINLIPLHVLVLMLTGRFSHRIYVAYCTVYCLGTILSMQISFVGFQPVLSSEHMAAFGVFGLCQIHAFVDYLRSKLNPQQFEVLFRSVISLVGFVLLTVGALLMLTGKISPWTGRFYSLLDPSYAKNNIPIIASVSEHQPTTWSSYYFDLQLLVFMFPVGLYYCFSNLSDARIFIIMYGVTSMYFSAVMVRLMLVLAPVMCILSGIGVSQVLSTYMKNLDISRPDKKSKKQQDSTYPIKNEVASGMILVMAFFLITYTFHSTWVTSEAYSSPSIVLSARGGDGSRIIFDDFREAYYWLRHNTPEDAKVMSWWDYGYQITAMANRTILVDNNTWNNTHISRVGQAMASTEEKAYEIMRELDVSYVLVIFGGLTGYSSDDINKFLWMVRIGGSTDTGKHIKENDYYTPTGEFRVDREGSPVLLNCLMYKMCYYRFGQVYTEAKRPPGFDRVRNAEIGNKDFELDVLEEAYTTEHWLVRIYKVKDLDNRGLSRT | binds |
| VTI1B (protein, UniProt Q9UEU0 1-232) MASSAASSEHFEKLHEIFRGLHEDLQGVPERLLGTAGTEEKKKLIRDFDEKQQEANETLAEMEEELRYAPLSFRNPMMSKLRNYRKDLAKLHREVRSTPLTATPGGRGDMKYGIYAVENEHMNRLQSQRAMLLQGTESLNRATQSIERSHRIATETDQIGSEIIEELGEQRDQLERTKSRLVNTSENLSKSRKILRSMSRKVTTNKLLLSIIILLELAILGGLVYYKFFRSH | binds |
| SRPRB (protein, UniProt Q9Y5M8 1-271) MASADSRRVADGGGAGGTFQPYLDTLRQELQQTDPTLLSVVVAVLAVLLTLVFWKLIRSRRSSQRAVLLVGLCDSGKTLLFVRLLTGLYRDTQTSITDSCAVYRVNNNRGNSLTLIDLPGHESLRLQFLERFKSSARAIVFVVDSAAFQREVKDVAEFLYQVLIDSMGLKNTPSFLIACNKQDIAMAKSAKLIQQQLEKELNTLRVTRSAAPSTLDSSSTAPAQLGKKGKEFEFSQLPLKVEFLECSAKGGRGDVGSADIQDLEKWLAKIA | binds |
| VPS53 (protein, UniProt Q5VIR6 1-832) MMEEEELEFVEELEAVLQLTPEVQLAIEQVFPSQDPLDRADFNAVEYINTLFPTEQSLANIDEVVNKIRLKIRRLDDNIRTVVRGQTNVGQDGRQALEEAQKAIQQLFGKIKDIKDKAEKSEQMVKEITRDIKQLDHAKRHLTTSITTLNHLHMLAGGVDSLEAMTRRRQYGEVANLLQGVMNVLEHFHKYMGIPQIRQLSERVKAAQTELGQQILADFEEAFPSQGTKRPGGPSNVLRDACLVANILDPRIKQEIIKKFIKQHLSEYLVLFQENQDVAWLDKIDRRYAWIKRQLVDYEEKYGRMFPREWCMAERIAVEFCHVTRAELAKIMRTRAKEIEVKLLLFAIQRTTNFEGFLAKRFSGCTLTDGTLKKLESPPPSTNPFLEDEPTPEMEELATEKGDLDQPKKPKAPDNPFHGIVSKCFEPHLYVYIESQDKNLGELIDRFVADFKAQGPPKPNTDEGGAVLPSCADLFVYYKKCMVQCSQLSTGEPMIALTTIFQKYLREYAWKILSGNLPKTTTSSGGLTISSLLKEKEGSEVAKFTLEELCLICNILSTAEYCLATTQQLEEKLKEKVDVSLIERINLTGEMDTFSTVISSSIQLLVQDLDAACDPALTAMSKMQWQNVEHVGDQSPYVTSVILHIKQNVPIIRDNLASTRKYFTQFCVKFANSFIPKFITHLFKCKPISMVGAEQLLLDTHSLKMVLLDLPSISSQVVRKAPASYTKIVVKGMTRAEMILKVVMAPHEPLVVFVDNYIKLLTDCNTETFQKILDMKGLKRSEQSSMLELLRQRLPAPPSGAESSGSLSLTAPTPEQESSRIRKLEKLIKKRL | binds |

More lines, now with the values ahead:

| binding | Molecule |
| --- | --- |
| binds | FLOT1 (protein, UniProt O75955 1-427) MFFTCGPNEAMVVSGFCRSPPVMVAGGRVFVLPCIQQIQRISLNTLTLNVKSEKVYTRHGVPISVTGIAQVKIQGQNKEMLAAACQMFLGKTEAEIAHIALETLEGHQRAIMAHMTVEEIYKDRQKFSEQVFKVASSDLVNMGISVVSYTLKDIHDDQDYLHSLGKARTAQVQKDARIGEAEAKRDAGIREAKAKQEKVSAQYLSEIEMAKAQRDYELKKAAYDIEVNTRRAQADLAYQLQVAKTKQQIEEQRVQVQVVERAQQVAVQEQEIARREKELEARVRKPAEAERYKLERLAEAEKSQLIMQAEAEAASVRMRGEAEAFAIGARARAEAEQMAKKAEAFQLYQEAAQLDMLLEKLPQVAEEISGPLTSANKITLVSSGSGTMGAAKVTGEVLDILTRLPESVERLTGVSISQVNHKPLRTA |
| binds | DDOST (protein, UniProt P39656 43-456) SGPRTLVLLDNLNVRETHSLFFRSLKDRGFELTFKTADDPSLSLIKYGEFLYDNLIIFSPSVEDFGGNINVETISAFIDGGGSVLVAASSDIGDPLRELGSECGIEFDEEKTAVIDHHNYDISDLGQHTLIVADTENLLKAPTIVGKSSLNPILFRGVGMVADPDNPLVLDILTGSSTSYSFFPDKPITQYPHAVGKNTLLIAGLQARNNARVIFSGSLDFFSDSFFNSAVQKAAPGSQRYSQTGNYELAVALSRWVFKEEGVLRVGPVSHHRVGETAPPNAYTVTDLVEYSIVIQQLSNGKWVPFDGDDIQLEFVRIDPFVRTFLKKKGGKYSVQFKLPDVYGVFQFKVDYNRLGYTHLYSSTQVSVRPLQHTQYERFIPSAYPYYASAFSMMLGLFIFSIVFLHMKEKEKSD |
